doi:10.1101/2025.03.06.641037

The chains behind the UniProt entries cited, without tags or fusion partners.
UniProt Q13185: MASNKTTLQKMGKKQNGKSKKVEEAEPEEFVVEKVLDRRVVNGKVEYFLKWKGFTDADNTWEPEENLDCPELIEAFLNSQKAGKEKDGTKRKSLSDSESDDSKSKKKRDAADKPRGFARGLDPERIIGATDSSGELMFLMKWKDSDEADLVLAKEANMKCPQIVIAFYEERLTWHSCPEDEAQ
UniProt Q9UKL0: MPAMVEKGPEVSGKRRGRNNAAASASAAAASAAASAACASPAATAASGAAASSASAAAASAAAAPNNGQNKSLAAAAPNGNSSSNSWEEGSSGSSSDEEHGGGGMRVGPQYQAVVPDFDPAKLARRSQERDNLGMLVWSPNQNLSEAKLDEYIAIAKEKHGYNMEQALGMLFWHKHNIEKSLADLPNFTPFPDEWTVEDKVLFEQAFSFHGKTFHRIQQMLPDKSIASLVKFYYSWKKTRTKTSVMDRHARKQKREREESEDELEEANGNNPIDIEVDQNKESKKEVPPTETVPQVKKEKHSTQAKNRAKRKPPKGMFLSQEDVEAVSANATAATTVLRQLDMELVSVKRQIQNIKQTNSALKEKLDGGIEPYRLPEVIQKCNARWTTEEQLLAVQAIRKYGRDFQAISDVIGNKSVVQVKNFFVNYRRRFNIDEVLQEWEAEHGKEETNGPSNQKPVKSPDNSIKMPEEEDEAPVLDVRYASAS
UniProt O95785: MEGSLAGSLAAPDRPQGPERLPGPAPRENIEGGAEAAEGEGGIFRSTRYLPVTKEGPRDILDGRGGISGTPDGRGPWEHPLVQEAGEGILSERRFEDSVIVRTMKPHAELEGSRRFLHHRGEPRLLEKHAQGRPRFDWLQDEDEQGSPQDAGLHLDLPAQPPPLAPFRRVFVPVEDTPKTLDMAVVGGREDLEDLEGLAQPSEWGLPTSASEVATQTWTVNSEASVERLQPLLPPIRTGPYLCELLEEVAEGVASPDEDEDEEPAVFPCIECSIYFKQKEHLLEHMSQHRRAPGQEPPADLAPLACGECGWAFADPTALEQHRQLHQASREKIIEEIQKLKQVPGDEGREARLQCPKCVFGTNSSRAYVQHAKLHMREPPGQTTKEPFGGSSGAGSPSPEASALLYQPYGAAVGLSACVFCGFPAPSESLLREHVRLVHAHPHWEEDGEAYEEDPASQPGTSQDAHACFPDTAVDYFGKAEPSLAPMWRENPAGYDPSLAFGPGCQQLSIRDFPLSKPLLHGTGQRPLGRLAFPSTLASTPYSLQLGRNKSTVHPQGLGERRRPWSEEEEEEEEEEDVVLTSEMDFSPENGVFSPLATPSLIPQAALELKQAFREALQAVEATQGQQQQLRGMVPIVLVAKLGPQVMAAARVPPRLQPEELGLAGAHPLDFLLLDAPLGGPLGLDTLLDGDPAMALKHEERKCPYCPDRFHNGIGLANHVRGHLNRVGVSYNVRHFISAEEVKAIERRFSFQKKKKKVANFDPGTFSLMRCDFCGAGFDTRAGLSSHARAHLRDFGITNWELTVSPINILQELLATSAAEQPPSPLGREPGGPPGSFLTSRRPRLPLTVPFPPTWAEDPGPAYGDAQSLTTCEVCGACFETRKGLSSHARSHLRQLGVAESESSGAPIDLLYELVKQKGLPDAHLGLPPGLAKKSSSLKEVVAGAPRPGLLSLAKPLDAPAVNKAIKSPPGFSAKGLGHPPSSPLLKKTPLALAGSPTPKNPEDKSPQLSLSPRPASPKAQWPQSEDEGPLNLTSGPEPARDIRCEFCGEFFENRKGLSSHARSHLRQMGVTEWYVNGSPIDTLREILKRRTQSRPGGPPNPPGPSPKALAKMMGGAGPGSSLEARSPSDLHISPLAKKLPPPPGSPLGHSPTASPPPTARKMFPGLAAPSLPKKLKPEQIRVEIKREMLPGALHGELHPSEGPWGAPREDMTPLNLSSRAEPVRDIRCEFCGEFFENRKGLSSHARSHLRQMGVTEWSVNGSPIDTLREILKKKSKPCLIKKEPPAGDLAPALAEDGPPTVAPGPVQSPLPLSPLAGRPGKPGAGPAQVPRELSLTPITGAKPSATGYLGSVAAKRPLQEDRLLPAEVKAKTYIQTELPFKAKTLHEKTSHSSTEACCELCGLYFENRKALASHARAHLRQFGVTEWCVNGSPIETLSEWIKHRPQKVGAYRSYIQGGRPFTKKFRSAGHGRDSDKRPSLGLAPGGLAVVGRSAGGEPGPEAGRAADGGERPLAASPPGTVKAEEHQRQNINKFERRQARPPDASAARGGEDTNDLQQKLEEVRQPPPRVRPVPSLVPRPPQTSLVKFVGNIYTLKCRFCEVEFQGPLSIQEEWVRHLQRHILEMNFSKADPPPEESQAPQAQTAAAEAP
UniProt P46100: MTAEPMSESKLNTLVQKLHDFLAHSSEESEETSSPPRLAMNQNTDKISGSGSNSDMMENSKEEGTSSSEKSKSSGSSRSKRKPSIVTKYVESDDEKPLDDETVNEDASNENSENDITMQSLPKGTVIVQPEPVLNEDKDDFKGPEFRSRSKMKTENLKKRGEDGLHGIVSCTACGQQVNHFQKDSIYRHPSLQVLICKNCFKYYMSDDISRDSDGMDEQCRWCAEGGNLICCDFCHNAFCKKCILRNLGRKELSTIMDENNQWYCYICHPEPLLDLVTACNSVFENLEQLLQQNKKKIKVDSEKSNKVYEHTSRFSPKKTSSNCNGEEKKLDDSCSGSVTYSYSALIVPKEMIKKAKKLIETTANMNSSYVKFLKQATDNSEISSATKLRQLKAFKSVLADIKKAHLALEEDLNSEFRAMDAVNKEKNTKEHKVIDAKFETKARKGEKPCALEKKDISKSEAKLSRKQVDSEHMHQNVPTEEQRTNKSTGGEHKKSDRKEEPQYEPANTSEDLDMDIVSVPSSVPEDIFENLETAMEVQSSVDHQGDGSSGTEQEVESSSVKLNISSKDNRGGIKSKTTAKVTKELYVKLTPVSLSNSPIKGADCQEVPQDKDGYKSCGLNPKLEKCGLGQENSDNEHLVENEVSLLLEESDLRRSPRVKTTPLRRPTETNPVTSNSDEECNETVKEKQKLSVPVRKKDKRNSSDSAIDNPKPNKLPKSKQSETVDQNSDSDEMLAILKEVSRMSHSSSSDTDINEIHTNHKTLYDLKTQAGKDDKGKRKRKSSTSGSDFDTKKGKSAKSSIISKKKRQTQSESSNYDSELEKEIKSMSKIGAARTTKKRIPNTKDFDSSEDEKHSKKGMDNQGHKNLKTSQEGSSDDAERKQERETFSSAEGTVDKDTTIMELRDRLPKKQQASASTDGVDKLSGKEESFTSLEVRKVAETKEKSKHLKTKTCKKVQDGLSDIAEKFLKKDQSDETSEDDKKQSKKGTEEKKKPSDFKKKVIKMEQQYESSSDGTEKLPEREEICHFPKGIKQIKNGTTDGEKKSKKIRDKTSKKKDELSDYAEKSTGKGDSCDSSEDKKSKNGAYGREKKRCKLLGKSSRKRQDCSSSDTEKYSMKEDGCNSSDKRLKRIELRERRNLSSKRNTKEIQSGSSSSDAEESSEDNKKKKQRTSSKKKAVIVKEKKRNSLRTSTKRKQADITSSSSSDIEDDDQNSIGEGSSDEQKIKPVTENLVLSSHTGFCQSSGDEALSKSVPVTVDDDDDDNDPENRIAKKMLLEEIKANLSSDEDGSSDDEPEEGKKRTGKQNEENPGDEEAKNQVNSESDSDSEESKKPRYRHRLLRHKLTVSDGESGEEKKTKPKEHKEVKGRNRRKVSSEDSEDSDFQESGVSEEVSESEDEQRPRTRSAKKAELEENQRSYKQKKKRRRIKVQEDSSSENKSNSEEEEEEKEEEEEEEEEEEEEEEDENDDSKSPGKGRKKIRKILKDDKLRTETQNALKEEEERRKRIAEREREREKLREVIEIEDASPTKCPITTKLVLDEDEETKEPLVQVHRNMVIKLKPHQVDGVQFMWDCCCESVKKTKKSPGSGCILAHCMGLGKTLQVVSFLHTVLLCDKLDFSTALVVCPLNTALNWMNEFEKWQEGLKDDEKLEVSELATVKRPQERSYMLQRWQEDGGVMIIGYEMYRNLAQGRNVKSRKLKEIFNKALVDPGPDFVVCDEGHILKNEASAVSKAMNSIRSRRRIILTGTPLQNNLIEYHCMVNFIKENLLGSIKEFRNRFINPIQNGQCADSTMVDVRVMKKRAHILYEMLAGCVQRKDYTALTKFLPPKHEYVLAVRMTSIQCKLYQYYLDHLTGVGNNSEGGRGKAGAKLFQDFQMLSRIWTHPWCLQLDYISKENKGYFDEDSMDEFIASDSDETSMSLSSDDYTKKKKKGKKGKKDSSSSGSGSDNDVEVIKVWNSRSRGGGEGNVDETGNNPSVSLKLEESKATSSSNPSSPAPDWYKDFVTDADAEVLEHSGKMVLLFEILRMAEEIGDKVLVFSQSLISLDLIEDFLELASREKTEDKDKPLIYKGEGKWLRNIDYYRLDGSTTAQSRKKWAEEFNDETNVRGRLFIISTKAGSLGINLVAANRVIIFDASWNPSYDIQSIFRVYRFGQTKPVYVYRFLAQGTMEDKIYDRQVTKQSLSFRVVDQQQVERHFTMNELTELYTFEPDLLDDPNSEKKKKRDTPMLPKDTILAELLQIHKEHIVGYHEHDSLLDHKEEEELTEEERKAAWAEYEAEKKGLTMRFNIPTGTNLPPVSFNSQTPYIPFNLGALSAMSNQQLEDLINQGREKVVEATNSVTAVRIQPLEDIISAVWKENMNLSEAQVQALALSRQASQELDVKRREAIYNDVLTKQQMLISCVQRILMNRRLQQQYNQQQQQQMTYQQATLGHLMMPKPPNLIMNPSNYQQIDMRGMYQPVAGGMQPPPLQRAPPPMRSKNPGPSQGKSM
UniProt Q8IZ40: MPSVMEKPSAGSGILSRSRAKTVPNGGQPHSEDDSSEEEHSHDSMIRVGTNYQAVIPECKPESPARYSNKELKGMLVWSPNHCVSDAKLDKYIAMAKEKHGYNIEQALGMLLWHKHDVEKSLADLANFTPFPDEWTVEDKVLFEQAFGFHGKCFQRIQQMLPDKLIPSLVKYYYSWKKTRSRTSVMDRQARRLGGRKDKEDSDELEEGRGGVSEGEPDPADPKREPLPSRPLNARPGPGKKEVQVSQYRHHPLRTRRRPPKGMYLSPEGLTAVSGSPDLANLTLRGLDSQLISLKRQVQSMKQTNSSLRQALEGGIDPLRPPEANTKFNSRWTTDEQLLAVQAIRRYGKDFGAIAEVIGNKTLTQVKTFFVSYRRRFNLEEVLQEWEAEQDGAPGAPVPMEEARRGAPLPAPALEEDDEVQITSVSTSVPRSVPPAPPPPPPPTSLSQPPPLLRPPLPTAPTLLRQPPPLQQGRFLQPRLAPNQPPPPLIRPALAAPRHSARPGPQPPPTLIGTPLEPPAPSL
UniProt Q9UER7: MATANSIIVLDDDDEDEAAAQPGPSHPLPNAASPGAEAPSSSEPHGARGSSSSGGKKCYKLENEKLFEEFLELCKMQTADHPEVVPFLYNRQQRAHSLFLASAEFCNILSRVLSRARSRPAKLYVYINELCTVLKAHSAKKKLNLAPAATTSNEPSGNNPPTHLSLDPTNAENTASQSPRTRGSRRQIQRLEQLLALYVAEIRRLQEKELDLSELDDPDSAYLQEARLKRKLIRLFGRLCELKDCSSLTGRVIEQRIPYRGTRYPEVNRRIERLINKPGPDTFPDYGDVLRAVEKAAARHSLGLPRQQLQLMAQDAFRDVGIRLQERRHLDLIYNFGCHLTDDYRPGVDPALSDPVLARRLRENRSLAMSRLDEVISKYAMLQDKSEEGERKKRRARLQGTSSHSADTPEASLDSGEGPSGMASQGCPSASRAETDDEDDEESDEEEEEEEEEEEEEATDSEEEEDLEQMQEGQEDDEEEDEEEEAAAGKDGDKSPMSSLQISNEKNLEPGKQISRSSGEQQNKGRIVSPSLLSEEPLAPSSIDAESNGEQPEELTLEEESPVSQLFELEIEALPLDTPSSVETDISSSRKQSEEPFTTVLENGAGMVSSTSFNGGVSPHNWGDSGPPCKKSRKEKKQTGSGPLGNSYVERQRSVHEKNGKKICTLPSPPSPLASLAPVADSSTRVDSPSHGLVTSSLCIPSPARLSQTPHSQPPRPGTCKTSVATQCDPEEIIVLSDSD

T1: F2V5-ADNP (Activity-Dependent Neuroprotective Protein, endogenously tagged) (human (endogenous in H9-derived hNSCs)) (UniProt Q9H2P0)
T1 sequence: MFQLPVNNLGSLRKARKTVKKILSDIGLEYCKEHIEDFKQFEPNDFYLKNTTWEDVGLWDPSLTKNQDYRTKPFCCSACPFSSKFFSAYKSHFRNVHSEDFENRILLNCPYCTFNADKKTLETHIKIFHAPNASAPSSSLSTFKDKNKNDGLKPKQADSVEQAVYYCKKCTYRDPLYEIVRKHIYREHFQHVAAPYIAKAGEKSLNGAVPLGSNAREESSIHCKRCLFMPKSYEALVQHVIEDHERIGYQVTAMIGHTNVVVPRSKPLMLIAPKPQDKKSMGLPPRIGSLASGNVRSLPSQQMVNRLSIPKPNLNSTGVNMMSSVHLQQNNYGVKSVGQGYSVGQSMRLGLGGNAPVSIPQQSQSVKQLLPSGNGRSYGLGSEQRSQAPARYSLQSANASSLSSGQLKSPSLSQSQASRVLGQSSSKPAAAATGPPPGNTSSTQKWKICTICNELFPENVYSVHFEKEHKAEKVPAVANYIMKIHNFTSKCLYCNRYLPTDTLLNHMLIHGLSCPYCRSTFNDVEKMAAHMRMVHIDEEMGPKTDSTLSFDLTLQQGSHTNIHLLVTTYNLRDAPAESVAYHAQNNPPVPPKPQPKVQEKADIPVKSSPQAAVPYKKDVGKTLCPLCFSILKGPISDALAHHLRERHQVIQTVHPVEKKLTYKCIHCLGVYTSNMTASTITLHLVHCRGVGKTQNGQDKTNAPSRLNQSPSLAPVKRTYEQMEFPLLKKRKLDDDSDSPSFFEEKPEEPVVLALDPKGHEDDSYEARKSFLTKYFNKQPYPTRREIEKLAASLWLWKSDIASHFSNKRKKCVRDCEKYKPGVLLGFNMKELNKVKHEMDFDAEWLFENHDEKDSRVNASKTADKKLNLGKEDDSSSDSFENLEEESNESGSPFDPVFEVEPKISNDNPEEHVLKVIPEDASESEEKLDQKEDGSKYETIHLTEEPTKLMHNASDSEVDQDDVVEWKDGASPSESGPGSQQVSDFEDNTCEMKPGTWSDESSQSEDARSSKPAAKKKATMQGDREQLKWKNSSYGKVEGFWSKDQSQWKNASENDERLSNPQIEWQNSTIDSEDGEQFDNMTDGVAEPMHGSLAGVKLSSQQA

B1: ZNF644 (protein, UniProt Q9H582 1-1327)
chain: MRSFLQQDVNKTKSRLNVLNGLANNMDDLKINTDITGAKEELLDDNNFISDKESGVHKPKDCQTSFQKNNTLTLPEELSKDKSENALSGGQSSLFIHAGAPTVSSENFILPKGAAVNGPVSHSSLTKTSNMNKGSVSLTTGQPVDQPTTESCSTLKVAADLQLSTPQKASQHQVLFLLSDVAHAKNPTHSNKKLPTSASVGCDIQNSVGSNIKSDGTLINQVEVGEDGEDLLVKDDCVNTVTGISSGTDGFRSENDTNWDPQKEFIQFLMTNEETVDKAPPHSKIGLEKKRKRKMDVSKITRYTEDCFSDSNCVPNKSKMQEVDFLEQNEELQAVDSQKYALSKVKPESTDEDLESVDAFQHLIYNPDKCGEESSPVHTSTFLSNTLKKKCEESDSESPATFSTEEPSFYPCTKCNVNFREKKHLHRHMMYHLDGNSHFRHLNVPRPYACRECGRTFRDRNSLLKHMIIHQERRQKLMEEIRELKELQDEGRSARLQCPQCVFGTNCPKTFVQHAKTHEKDKRYYCCEECNFMAVTENELECHRGIAHGAVVKCPMVTSDIAQRKTQKKTFMKDSVVGSSKKSATYICKMCPFTTSAKSVLKKHTEYLHSSSCVDSFGSPLGLDKRKNDILEEPVDSDSTKTLTKQQSTTFPKNSALKQDVKRTFGSTSQSSSFSKIHKRPHRIQKARKSIAQSGVNMCNQNSSPHKNVTIKSSVDQKPKYFHQAAKEKSNAKANSHYLYRHKYENYRMIKKSGESYPVHFKKEEASSLNSLHLFSSSSNSHNNFISDPHKPDAKRPESFKDHRRVAVKRVIKESKKESSVGGEDLDSYPDFLHKMTVVVLQKLNSAEKKDSYETEDESSWDNVELGDYTTQAIEDETYSDINQEHVNLFPLFKSKVEGQEPGENATLSYDQNDGFYFEYYEDTGSNNFLHEIHDPQHLETADASLSKHSSVFHWTDLSLEKKSCPYCPATFETGVGLSNHVRGHLHRAGLSYEARHVVSPEQIATSDKMQHFKRTGTGTPVKRVRKAIEKSETTSEHTCQLCGGWFDTKIGLSNHVRGHLKRLGKTKWDAHKSPICVLNEMMQNEEKYEKILKALNSRRIIPRPFVAQKLASSDDFISQNVIPLEAYRNGLKTEALSVSASEEEGLNFLNEYDETKPELPSGKKNQSLTLIELLKNKRMGEERNSAISPQKIHNQTARKRFVQKCVLPLNEDSPLMYQPQKMDLTMHSALDCKQKKSRSRSGSKKKMLTLPHGADEVYILRCRFCGLVFRGPLSVQEDWIKHLQRHIVNANLPRTGAGMVEVTSLLKKPASITETSFSLLMAEAAS
B2: WDR18 (protein, UniProt Q9BV38 1-432)
chain: MAAPMEVAVCTDSAAPMWSCIVWELHSGANLLTYRGGQAGPRGLALLNGEYLLAAQLGKNYISAWELQRKDQLQQKIMCPGPVTCLTASPNGLYVLAGVAESIHLWEVSTGNLLVILSRHYQDVSCLQFTGDSSHFISGGKDCLVLVWSLCSVLQADPSRIPAPRHVWSHHALPITDLHCGFGGPLARVATSSLDQTVKLWEVSSGELLLSVLFDVSIMAVTMDLAEHHMFCGGSEGSIFQVDLFTWPGQRERSFHPEQDAGKVFKGHRNQVTCLSVSTDGSVLLSGSHDETVRLWDVQSKQCIRTVALKGPVTNAAILLAPVSMLSSDFRPSLPLPHFNKHLLGAEHGDEPRHGGLTLRLGLHQQGSEPSYLDRTEQLQAVLCSTMEKSVLGGQDQLRVRVTELEDEVRNLRKINRDLFDFSTRFITRPAK
B3: TEX10 (protein, UniProt Q9NXF1 1-929)
chain: MTKKRKRQHDFQKVKLKVGKKKPKLQNATPTNFKTKTIHLPEQLKEDGTLPTNNRKLNIKDLLSQMHHYNAGVKQSALLGLKDLLSQYPFIIDAHLSNILSEVTAVFTDKDANVRLAAVQLLQFLAPKIRAEQISPFFPLVSAHLSSAMTHITEGIQEDSLKVLDILLEQYPALITGRSSILLKNFVELISHQQLSKGLINRDRSQSWILSVNPNRRLTSQQWRLKVLVRLSKFLQALADGSSRLRESEGLQEQKENPHATSNSIFINWKEHANDQQHIQVYENGGSQPNVSSQFRLRYLVGGLSGVDEGLSSTENLKGFIEIIIPLLIECWVEAVPPQLATPVGNGIEREPLQVMQQVLNIISLLWKLSKQQDETHKLESWLRKNYLIDFKHHFMSRFPYVLKEITKHKRKEPNKSIKHCTVLSNNIDHLLLNLTLSDIMVSLANASTLQKDCSWIEMIRKFVTETLEDGSRLNSKQLNRLLGVSWRLMQIQPNREDTETLIKAVYTLYQQRGLILPVRTLLLKFFSKIYQTEELRSCRFRYRSKVLSRWLAGLPLQLAHLGSRNPELSTQLIDIIHTAAARANKELLKSLQATALRIYDPQEGAVVVLPADSQQRLVQLVYFLPSLPADLLSRLSRCCIMGRLSSSLAAMLIGILHMRSSFSGWKYSAKDWLMSDVDYFSFLFSTLTGFSKEELTWLQSLRGVPHVIQTQLSPVLLYLTDLDQFLHHWDVTEAVFHSLLVIPARSQNFDILQSAISKHLVGLTVIPDSTAGCVFGVICKLLDHTCVVSETLLPFLASCCYSLLYFLLTIEKGEAEHLRKRDKLWGVCVSILALLPRVLRLMLQSLRVNRVGPEELPVVGQLLRLLLQHAPLRTHMLTNAILVQQIIKNITTLKSGSVQEQWLTDLHYCFNVYITGHPQGPSALATVY
B4: LAS1L (protein, UniProt Q9Y4W2 1-734)
chain: MSWESGAGPGLGSQGMDLVWSAWYGKCVKGKGSLPLSAHGIVVAWLSRAEWDQVTVYLFCDDHKLQRYALNRITVWRSRSGNELPLAVASTADLIRCKLLDVTGGLGTDELRLLYGMALVRFVNLISERKTKFAKVPLKCLAQEVNIPDWIVDLRHELTHKKMPHINDCRRGCYFVLDWLQKTYWCRQLENSLRETWELEEFREGIEEEDQEEDKNIVVDDITEQKPEPQDDGKSTESDVKADGDSKGSEEVDSHCKKALSHKELYERARELLVSYEEEQFTVLEKFRYLPKAIKAWNNPSPRVECVLAELKGVTCENREAVLDAFLDDGFLVPTFEQLAALQIEYEDGQTEVQRGEGTDPKSHKNVDLNDVLVPKPFSQFWQPLLRGLHSQNFTQALLERMLSELPALGISGIRPTYILRWTVELIVANTKTGRNARRFSAGQWEARRGWRLFNCSASLDWPRMVESCLGSPCWASPQLLRIIFKAMGQGLPDEEQEKLLRICSIYTQSGENSLVQEGSEASPIGKSPYTLDSLYWSVKPASSSFGSEAKAQQQEEQGSVNDVKEEEKEEKEVLPDQVEEEEENDDQEEEEEDEDDEDDEEEDRMEVGPFSTGQESPTAENARLLAQKRGALQGSAWQVSSEDVRWDTFPLGRMPGQTEDPAELMLENYDTMYLLDQPVLEQRLEPSTCKTDTLGLSCGVGSGNCSNSSSSNFEGLLWSQGQLHGLKTGLQLF

molecular target: T1, F2V5-ADNP (Activity-Dependent Neuroprotective Protein, endogenously tagged) (human (endogenous in H9-derived hNSCs)); test: affinity purification with mass spectrometry

binding, binds:
HP1γ (from UniProt Q13185 1-183), RCOR1 (from UniProt Q9UKL0 1-485), WIZ (from UniProt O95785 1-1651), EHMT2 (from UniProt Q96KQ7 1-1210), ATRX (from UniProt P46100 1-2492), ZMYM4 (from UniProt Q5VZL5 1-1548), RCOR2 (from UniProt Q8IZ40 1-523), DAXX (from UniProt Q9UER7 1-740), PELP1 (from UniProt Q8IZL8 1-1130), GTF2I (from UniProt P78347 1-998), EHMT1 (from UniProt Q9H9B1 1-1298), B1, B2, B3, B4

These are yes or no findings as the source states them, for the method shown. In cells and extracts the contact can be indirect. These calls come from enrichment with a bait or labelling near it, and not all partners need be listed. Sequences can lack the tags named with a protein.
